Measurements published in US20250074896A1, “ARYLTETRAHYDROPYRIDAZINE DERIVATIVE OR SALT THEREOF AND INSECTICIDAL AGENT CONTAINING THE COMPOUND AND METHOD FOR USING SAME” (NIHON NOHYAKU CO., LTD., priority 2021, published 2025).
Some results were stated once for a whole list of compounds, not compound by compound.

Key:
Format in all cases: in vivo
[1] = system: Small Brown Planthopper (Laodelphax striatellus); experiment: Insecticidal test on small brown planthopper (dipped rice seedlings, 3rd-instar larvae); details: rice seedlings dipped 30 seconds, 8 days after inoculation
[2] = system: Diamondback moth (Plutella xylostella); experiment: Insecticidal test on diamondback moth (dip treatment of Chinese cabbage seedlings with laid eggs); details: dip about 30 seconds, 6 days after treatment, 25° C.
[3] = system: Western Flower Thrips (Frankliniella occidentalis); experiment: Insecticidal test on western flower thrips (kidney bean leaf pieces, hatched larvae); details: 4 days after the treatment

CCCCCOC(=O)N1C(=O)C(C(=O)Nc2ccc(F)cc2)=C(O)CN1c1ccc(C(F)(F)F)nc1 [3-311]
A (the mortality rate is 100%): insecticidal efficacy (corrected mortality rate) against small brown planthopper ([1]; 50 ppm) | insecticidal efficacy (corrected mortality rate) against small brown planthopper ([1]; 500 ppm) | insecticidal efficacy (corrected mortality rate) against diamondback moth ([2]; 50 ppm) | insecticidal efficacy (corrected mortality rate) against diamondback moth ([2]; 500 ppm) | insecticidal efficacy (corrected mortality rate) against western flower thrips ([3]; 50 ppm) | insecticidal efficacy (corrected mortality rate) against western flower thrips ([3]; 500 ppm)

CCCCNC(=O)N1C(=O)C(C(=O)Nc2ccc(F)cc2)=C(O)CN1c1ccc(C(F)(F)F)nc1 [3-71]
A (the mortality rate is 100%): insecticidal efficacy (corrected mortality rate) against small brown planthopper ([1]; 50 ppm) | insecticidal efficacy (corrected mortality rate) against small brown planthopper ([1]; 500 ppm) | insecticidal efficacy (corrected mortality rate) against diamondback moth ([2]; 50 ppm) | insecticidal efficacy (corrected mortality rate) against diamondback moth ([2]; 500 ppm) | insecticidal efficacy (corrected mortality rate) against western flower thrips ([3]; 50 ppm) | insecticidal efficacy (corrected mortality rate) against western flower thrips ([3]; 500 ppm)

COc1ccc(NC(=O)C2=C(O)CN(c3ccc(Br)nc3)NC2=O)cn1 [1-63]
A (the mortality rate is 100%): insecticidal efficacy (corrected mortality rate) against small brown planthopper ([1]; 500 ppm) | insecticidal efficacy (corrected mortality rate) against diamondback moth ([2]; 500 ppm) | insecticidal efficacy (corrected mortality rate) against western flower thrips ([3]; 500 ppm)

O=C(Nc1ccc(F)cc1)C1=C(O)CN(c2ccc(C(F)(F)F)nc2)N(C(=O)C2CC2)C1=O [3-8]
A (the mortality rate is 100%): insecticidal efficacy (corrected mortality rate) against small brown planthopper ([1]; 50 ppm) | insecticidal efficacy (corrected mortality rate) against small brown planthopper ([1]; 500 ppm) | insecticidal efficacy (corrected mortality rate) against diamondback moth ([2]; 50 ppm) | insecticidal efficacy (corrected mortality rate) against diamondback moth ([2]; 500 ppm) | insecticidal efficacy (corrected mortality rate) against western flower thrips ([3]; 50 ppm) | insecticidal efficacy (corrected mortality rate) against western flower thrips ([3]; 500 ppm)

Cn1cc(NC(=O)C2=C(O)CN(c3ccc(C#N)cn3)NC2=O)cn1 [1-300]
A (the mortality rate is 100%): insecticidal efficacy (corrected mortality rate) against small brown planthopper ([1]; 50 ppm) | insecticidal efficacy (corrected mortality rate) against small brown planthopper ([1]; 500 ppm) | insecticidal efficacy (corrected mortality rate) against diamondback moth ([2]; 500 ppm) | insecticidal efficacy (corrected mortality rate) against western flower thrips ([3]; 500 ppm)

CNC(=O)C1=C(O)CN(c2ccc(C#N)cc2)NC1=O [1-213]
A (the mortality rate is 100%): insecticidal efficacy (corrected mortality rate) against small brown planthopper ([1]; 50 ppm) | insecticidal efficacy (corrected mortality rate) against small brown planthopper ([1]; 500 ppm) | insecticidal efficacy (corrected mortality rate) against diamondback moth ([2]; 500 ppm) | insecticidal efficacy (corrected mortality rate) against western flower thrips ([3]; 500 ppm)

CCn1ccc(NC(=O)C2=C(O)CN(c3ccc(C#N)cc3)N(C(=O)OC)C2=O)n1 [3-459]
A (the mortality rate is 100%): insecticidal efficacy (corrected mortality rate) against small brown planthopper ([1]; 50 ppm) | insecticidal efficacy (corrected mortality rate) against small brown planthopper ([1]; 500 ppm) | insecticidal efficacy (corrected mortality rate) against diamondback moth ([2]; 500 ppm) | insecticidal efficacy (corrected mortality rate) against western flower thrips ([3]; 500 ppm)

N#Cc1ccc(N2CC(O)=C(C(=O)Nc3ccc(F)cc3)C(=O)N2C(=O)OC2CCCC2)cn1 [3-314]
A (the mortality rate is 100%): insecticidal efficacy (corrected mortality rate) against small brown planthopper ([1]; 50 ppm) | insecticidal efficacy (corrected mortality rate) against small brown planthopper ([1]; 500 ppm) | insecticidal efficacy (corrected mortality rate) against diamondback moth ([2]; 50 ppm) | insecticidal efficacy (corrected mortality rate) against diamondback moth ([2]; 500 ppm) | insecticidal efficacy (corrected mortality rate) against western flower thrips ([3]; 50 ppm) | insecticidal efficacy (corrected mortality rate) against western flower thrips ([3]; 500 ppm)

O=C(Nc1ccc(F)cc1)C1=C(O)CN(c2ccc(C(F)(F)F)nc2)N(C(=O)OC2CCCC2)C1=O [3-313]
A (the mortality rate is 100%): insecticidal efficacy (corrected mortality rate) against small brown planthopper ([1]; 500 ppm) | insecticidal efficacy (corrected mortality rate) against diamondback moth ([2]; 50 ppm) | insecticidal efficacy (corrected mortality rate) against diamondback moth ([2]; 500 ppm) | insecticidal efficacy (corrected mortality rate) against western flower thrips ([3]; 50 ppm) | insecticidal efficacy (corrected mortality rate) against western flower thrips ([3]; 500 ppm)

N#Cc1ncc(N2CC(O)=C(C(=O)Nc3ccc(F)cc3)C(=O)N2)cc1Br [1-359]
A (the mortality rate is 100%): insecticidal efficacy (corrected mortality rate) against small brown planthopper ([1]; 50 ppm) | insecticidal efficacy (corrected mortality rate) against small brown planthopper ([1]; 500 ppm) | insecticidal efficacy (corrected mortality rate) against diamondback moth ([2]; 50 ppm) | insecticidal efficacy (corrected mortality rate) against diamondback moth ([2]; 500 ppm) | insecticidal efficacy (corrected mortality rate) against western flower thrips ([3]; 50 ppm) | insecticidal efficacy (corrected mortality rate) against western flower thrips ([3]; 500 ppm)

CONC(=O)N1C(=O)C(C(=O)Nc2ccc(F)cc2)=C(O)CN1c1ccc(C(F)(F)F)nc1 [3-81]
A (the mortality rate is 100%): insecticidal efficacy (corrected mortality rate) against small brown planthopper ([1]; 50 ppm) | insecticidal efficacy (corrected mortality rate) against small brown planthopper ([1]; 500 ppm) | insecticidal efficacy (corrected mortality rate) against diamondback moth ([2]; 50 ppm) | insecticidal efficacy (corrected mortality rate) against diamondback moth ([2]; 500 ppm) | insecticidal efficacy (corrected mortality rate) against western flower thrips ([3]; 50 ppm) | insecticidal efficacy (corrected mortality rate) against western flower thrips ([3]; 500 ppm)

COC(=O)N1C(=O)C(C(=O)Nc2cccc(C)n2)=C(O)CN1c1ccc(Cl)nc1 [3-655]
A (the mortality rate is 100%): insecticidal efficacy (corrected mortality rate) against small brown planthopper ([1]; 50 ppm) | insecticidal efficacy (corrected mortality rate) against small brown planthopper ([1]; 500 ppm) | insecticidal efficacy (corrected mortality rate) against diamondback moth ([2]; 50 ppm) | insecticidal efficacy (corrected mortality rate) against diamondback moth ([2]; 500 ppm) | insecticidal efficacy (corrected mortality rate) against western flower thrips ([3]; 50 ppm) | insecticidal efficacy (corrected mortality rate) against western flower thrips ([3]; 500 ppm)

COCCNC(=S)N1C(=O)C(C(=O)Nc2ccc(F)cc2)=C(O)CN1c1ccc(C(F)(F)F)nc1 [3-370]
A (the mortality rate is 100%): insecticidal efficacy (corrected mortality rate) against small brown planthopper ([1]; 50 ppm) | insecticidal efficacy (corrected mortality rate) against small brown planthopper ([1]; 500 ppm) | insecticidal efficacy (corrected mortality rate) against diamondback moth ([2]; 50 ppm) | insecticidal efficacy (corrected mortality rate) against diamondback moth ([2]; 500 ppm) | insecticidal efficacy (corrected mortality rate) against western flower thrips ([3]; 50 ppm) | insecticidal efficacy (corrected mortality rate) against western flower thrips ([3]; 500 ppm)

O=C(Nc1ccc(F)cc1)C1=C(NO)CN(c2ccc(C(F)(F)F)nc2)NC1=O [5-21]
A (the mortality rate is 100%): insecticidal efficacy (corrected mortality rate) against small brown planthopper ([1]; 500 ppm) | insecticidal efficacy (corrected mortality rate) against diamondback moth ([2]; 500 ppm) | insecticidal efficacy (corrected mortality rate) against western flower thrips ([3]; 50 ppm) | insecticidal efficacy (corrected mortality rate) against western flower thrips ([3]; 500 ppm)
